Laboratory results as given in PubChem BioAssay AID540276 (National Center for Advancing Translational Sciences (NCATS), 2011).
“And” between values parts separate entries of the source, which are not always exact repeats. Identical values can stand only once. Out of some 300,000 compounds screened, about 5,400 (1.8%) were called active. Inconclusive means that the source gave no clear call. Such entries were picked first, then a sample of the others. The call rests on the fitted dose curve; tested in HEK293 cells. A potency beside an inconclusive call is a rough fit, not a confirmed value.

test: qHTS for inhibitors of binding or entry into cells for Marburg Virus; settings: Marburg virus pseudotyped entry inhibition, cell reporter; series mostly up to 37.8 µM
Potency means the concentration at half of the fitted maximal effect.

SMILES	Potency
CCn1cc(SCC(=O)NC2CCCC2)c2ccccc21	inactive
Cc1ccc(-n2c(C)c(C)c3c(NCCCO)ncnc32)cc1	inconclusive: 0.631 µM [activator, full curve, poor fit]
COc1cccc(C(=O)N/N=C(\CC(C)C)c2ccccc2)c1	inactive
CCOC(=O)n1c(=O)n(Cc2ccc(OC)cc2)c2ccccc21	inconclusive: 10 µM [inhibitor, single point]
CC(C)(C)c1ccc(CCC2OCC(C[N+]3(C)CCOCC3)O2)cc1 (stereo not drawn)	inconclusive: 1 µM [activator, partial curve, poor fit]
O=C(Cn1c2ccc(F)cc2c2nc3n(c(=O)c21)CCS3)NC1CCCC1	inactive
COc1ccc(NC(=O)CCCn2c(=O)c3sccc3n(Cc3ccc(C)cc3C)c2=O)cc1	inconclusive: 2.82 µM [activator, single point]
COc1ccc2c(c1OC)C(=O)N1c3ccccc3C(=O)N(c3ccccc3)C21 (stereo not drawn)	inconclusive: 8.91 µM [inhibitor, partial curve, poor fit]
C=C(C)C(O)/C=C/c1ccc(Br)cc1 (stereo not drawn)	inactive
Cc1c(C(=O)Nc2ccccc2)cnn1-c1ccccc1	inconclusive: 1.26 µM [activator, single point]
CCCn1nc([N+](=O)[O-])c(C(C#N)c2nc3ccccc3s2)c(Cl)c1=O (stereo not drawn)	inconclusive: 32.6 µM [inhibitor, single point]
COc1ccc(C(=O)[C@@H](CN2CCCC2)c2ccccc2)cc1	inconclusive: 15.8 µM [inhibitor, single point]
CCCn1c(CCC(=O)O)nc2cc(S(=O)(=O)N3CCCC3)ccc21	inactive
COc1ccc(N(CC(=O)NCc2ccccc2OC)S(=O)(=O)c2ccccc2)cc1	active: 10 µM
Cc1csc(NC(=O)c2cccc(C)c2C)n1	inconclusive: 6.31 µM [activator, single point]
CCCCN(C)CC(O)Cn1cc(/C=C/C(=O)c2ccc(C)cc2)c2ccccc21 (stereo not drawn)	inconclusive: 20 µM [inhibitor, partial curve, poor fit]
CN(C)c1cccc(C(=O)Nc2nc3ccccc3[nH]2)c1	inconclusive: 7.08 µM [inhibitor, full curve, poor fit]
CC(=O)Nc1ccc(S(=O)(=O)Nc2cccc(-c3csc(C)n3)c2)cc1	inconclusive: 14.1 µM [inhibitor, single point]
CCCCCC(=O)N1C[C@@H](O)[C@H](n2cc(COC(=O)c3ccccc3)nn2)C[C@H]1c1ccc(Cl)cc1	inconclusive: 17.7 µM [inhibitor, partial curve, poor fit]
O=C(NC(=S)Nc1ccc(CN2CCOCC2)cc1)c1cccc(F)c1	inconclusive: 10 µM [activator, partial curve]
Cc1ccc(-n2c(SCC(=O)NNC(=S)Nc3ccccc3)nc3ccccc3c2=O)cc1	active: 8.91 µM
CC(C)c1ccc(NC(=O)Nc2csc3c2CCCC3)cc1	inconclusive: 35.5 µM [inhibitor, single point]
CC1(C)Cc2cccc(C(=O)Nc3ccncc3)c2O1	inconclusive: 11.2 µM [inhibitor, partial curve, poor fit]

SMILES	Potency
COC(=O)c1ccc(C)c(NS(=O)(=O)c2ccc3c(c2)OCCO3)c1	inconclusive: 0.164 µM [inhibitor, full curve, poor fit]
O=C(O)CSCC(=O)Nc1ccc(Cl)cc1C(F)(F)F	inactive
Cc1ccc(C)c(N2CCN(C(=O)CC3Sc4ccccc4NC3=O)CC2)c1 (stereo not drawn)	inconclusive: 11.2 µM [inhibitor, single point]
CCN(CC)C(=O)c1cc2sc3ccccc3c2s1	inactive
Cc1nc2ccccc2c(=O)n1-c1cccnc1	inconclusive: 0.164 µM [inhibitor, full curve, poor fit]
O=c1c2cnn(-c3ccc(F)cc3)c2ncn1Cc1cccnc1	inactive
COc1ccc(-c2ccc(C#N)c(SCC(=O)NCCc3ccccc3)n2)cc1OC	inactive
Cc1cc(C)cc(N(CCC#N)C(=O)COC(=O)c2ccccc2SCC(=O)N2CCCC2)c1	inconclusive: 0.112 µM [inhibitor, full curve, poor fit]
O=Cc1cn(Cc2cccc(F)c2)c2ccccc12	inconclusive: 11.2 µM [inhibitor, partial curve, poor fit]
Cc1occc1-c1nnc(SCC(=O)Nc2ccc(F)cc2)n1Cc1ccccc1	inconclusive: 31.6 µM [inhibitor, single point]
NC(=O)c1ccccc1N/C=C/C(=O)c1cccs1	inconclusive: 0.282 µM [activator, partial curve, poor fit]
CCOc1nc(N2CCOCC2)nc(C)c1[N+](=O)[O-]	inconclusive: 29.1 µM [activator, partial curve, poor fit]
CCOCCCNC(=O)c1c(NC(=O)c2cc(=O)c3ccccc3o2)sc2c1CCC2	inactive
CCn1c(=N)n(CCOc2ccc(OC)cc2)c2ccccc21	inconclusive: 11.2 µM [inhibitor, single point]
COc1cc(NC(=O)CN2C(=O)NC(C)(c3ccc4ccccc4c3)C2=O)c(C)cc1[N+](=O)[O-] (stereo not drawn)	inconclusive: 1.64 µM [inhibitor, partial curve, poor fit]
CCc1ccc2oc(-c3ccc(N)cc3)nc2c1	active: 5.17 µM
Cc1cc(C(=O)NCCN2CCN(c3cccc(Cl)c3)CC2)n(-c2ccccc2)n1	active: 7.31 µM
Cc1cc(F)ccc1NC(=O)c1cnccn1	inactive
CCC1C(=O)N=C(SCC(=O)Nc2ccc(S(N)(=O)=O)cc2)NC1=O (stereo not drawn)	inconclusive: 4.61 µM [inhibitor, single point]
NC(=O)c1ccsc1NC(=O)COC(=O)Cc1cccc2ccccc12	active: 7.08 µM
Cc1ccncc1CNC(=O)c1ccccc1	inconclusive: 3.16 µM [activator, single point]
CC(Sc1nnc(Cc2cccs2)n1C1CCCCC1)C(=O)N1CCc2ccccc21 (stereo not drawn)	inconclusive: 22.4 µM [inhibitor, single point]
COc1ccc(C(=O)C2CCCN(C(=O)c3cc(C)nc(C)n3)C2)cc1OC (stereo not drawn)	inactive

SMILES	Potency
CNC(=O)Cn1ncc2c(C)n(Cc3ccc(C)cc3)c(C)c2c1=O	inactive
C[C@H]1C2Cc3ccc(O)cc3[C@]1(C)CCN2CC1CC1	inactive and inconclusive: 35.5 µM [inhibitor, single point]
Cc1cccc(/C=N/N2CCN(c3ccccc3)CC2)c1	inconclusive: 5.62 µM [activator, full curve, poor fit]
COC(=O)c1c(NC(=O)CSc2ncnc3c2cnn3-c2ccccc2Cl)sc2c1CCCC2	inconclusive: 4.61 µM [inhibitor, full curve]
CN1CCN(c2ccc(S(=O)(=O)N3CCCCC3)cc2NC(=O)/C=C/c2ccc(OC(F)F)cc2)CC1	inconclusive: 35.5 µM [inhibitor, single point]
COc1ccc(CNc2ccc(-c3ccc(OC)cc3)nn2)cc1	inactive
O=c1c2cn[nH]c2nc(SCc2ccccc2F)n1-c1ccc(Br)cc1	inconclusive: 0.651 µM [activator, full curve, poor fit]
O=S(=O)(O)C1CCNCC1	inconclusive: 0.158 µM [inhibitor, full curve, poor fit]
CC(OC(=O)c1oc2ccccc2c1CSC1CCCCC1)C(=O)NC(N)=O (stereo not drawn)	inconclusive: 31.6 µM [inhibitor, single point]
CC(C)(C)C(=O)CSc1nnc(Nc2ccccc2)s1	inconclusive: 6.31 µM [activator, single point]
Cc1ccc(S(=O)(=O)Cc2ccc(C(=O)N3CCCCC3C)cc2)cc1 (stereo not drawn)	inconclusive: 6.31 µM [inhibitor, single point]
CC1CCCCC1NC(=O)C(=O)NCC1CCCO1 (stereo not drawn)	inconclusive: 3.16 µM [inhibitor, partial curve, poor fit]
CCCN1CCC(N2CCCC(C(=O)O)C2)CC1 (stereo not drawn)	inactive
C=CCOc1ccccc1CN1CCC(n2nccc2NC(=O)C2CC2)CC1	inconclusive: 17.8 µM [inhibitor, single point]
Cc1cc(Oc2ccc(C(C)(C)C)cc2)nc(N2CCOCC2)n1	inactive
CCN(CC)CCNC(C(=O)Nc1ccc([N+](=O)[O-])cc1Br)c1ccccc1 (stereo not drawn)	inconclusive: 1.26 µM [inhibitor, single point]
COC(=O)c1cc(C)sc1NC(=S)N1CCN(CCc2ccccc2)CC1	inconclusive: 0.708 µM [inhibitor, single point]
COc1cc(OC)cc(-c2nnc(SCC(=O)N3CCCc4ccccc43)o2)c1	inconclusive: 5.01 µM [inhibitor, single point]
COc1ccc2nc(C)cc(SCC(=O)N/N=C/c3ccc(O)cc3O)c2c1	inconclusive: 35.5 µM [inhibitor, single point]
O=C(COC(=O)C1CCC(=O)N1)Nc1cc(Cl)ccc1Cl (stereo not drawn)	inconclusive: 2.82 µM [activator, full curve, poor fit]
CCCCCC(=O)N(c1ccc(OCC)cc1)S(=O)(=O)c1ccc2c(c1)n(C)c(=O)n2C	inconclusive: 35.5 µM [inhibitor, single point]
Cc1ccc(O)c(C(=O)c2cc(C(=O)NCCC(C)C)c(=O)n(CCC(C)C)c2)c1	inconclusive: 2.51 µM [inhibitor, full curve, poor fit]
